Results published in PMC4140637.
No constants are given. Whether binding was seen depends on the method and setting. In cells and extracts the contact can be indirect. Some results given as binding are weak or reduced against the parent protein; the word gives no strength. Where a sequence is shown, tags or fusion partners need not be part of it.

T1: FLAG-tagged dSMN(Y203C) (Drosophila melanogaster) (UniProt Q9VV74)
T1 sequence: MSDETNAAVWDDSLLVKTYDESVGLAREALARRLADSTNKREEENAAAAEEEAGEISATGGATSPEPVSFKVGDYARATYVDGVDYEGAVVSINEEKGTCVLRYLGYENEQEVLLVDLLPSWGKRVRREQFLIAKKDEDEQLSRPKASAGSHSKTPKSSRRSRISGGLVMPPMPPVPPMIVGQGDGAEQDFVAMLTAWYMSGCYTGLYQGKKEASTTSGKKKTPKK

T2: FLAG-tagged dSMN(G206S) (Drosophila melanogaster) (UniProt Q9VV74)
T2 sequence: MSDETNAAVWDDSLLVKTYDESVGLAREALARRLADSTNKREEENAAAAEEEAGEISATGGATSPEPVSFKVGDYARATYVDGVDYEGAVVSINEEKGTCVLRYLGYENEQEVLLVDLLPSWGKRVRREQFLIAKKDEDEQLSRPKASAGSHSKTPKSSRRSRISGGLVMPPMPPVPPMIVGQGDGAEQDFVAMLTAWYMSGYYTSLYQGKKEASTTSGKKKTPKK

T3: FLAG-tagged dSMN(G210V) (Drosophila melanogaster) (UniProt Q9VV74)
T3 sequence: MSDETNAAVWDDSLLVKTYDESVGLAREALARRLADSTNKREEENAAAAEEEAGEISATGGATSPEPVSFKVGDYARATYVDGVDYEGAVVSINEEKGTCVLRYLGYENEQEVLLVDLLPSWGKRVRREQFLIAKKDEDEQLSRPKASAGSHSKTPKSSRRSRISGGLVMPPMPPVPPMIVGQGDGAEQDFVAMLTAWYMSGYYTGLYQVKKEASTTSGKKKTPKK

T4: FLAG-tagged wild-type Drosophila SMN (Flag-dSMN WT) (Drosophila melanogaster) (UniProt Q9VV74)
T4 sequence: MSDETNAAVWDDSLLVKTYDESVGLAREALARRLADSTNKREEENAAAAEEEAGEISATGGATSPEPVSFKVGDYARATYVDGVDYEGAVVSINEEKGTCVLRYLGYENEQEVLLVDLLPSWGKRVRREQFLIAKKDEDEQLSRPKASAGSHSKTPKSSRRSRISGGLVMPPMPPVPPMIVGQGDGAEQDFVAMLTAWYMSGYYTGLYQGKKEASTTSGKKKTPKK

T5: FLAG-tagged dSMN(D20V) (Drosophila melanogaster) (UniProt Q9VV74)
T5 sequence: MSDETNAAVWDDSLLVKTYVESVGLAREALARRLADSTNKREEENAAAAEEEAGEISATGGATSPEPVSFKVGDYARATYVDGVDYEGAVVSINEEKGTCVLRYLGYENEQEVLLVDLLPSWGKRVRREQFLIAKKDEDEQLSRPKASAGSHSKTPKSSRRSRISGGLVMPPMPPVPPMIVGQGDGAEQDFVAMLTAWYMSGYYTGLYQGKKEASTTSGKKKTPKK


What was measured:
Test in all cases: co-IP; S2 cells co-transfected with FLAG-tagged dSMN and a Myc-tagged partner (dSMN or dGem2); lysis buffer 50 mM Tris-HCl pH 7.5, 150 mM NaCl, 1 mM EDTA, 1% NP-40, 10% glycerol; immunoprecipitation with anti-FLAG agarose, western blot with anti-Myc (Fig. 3A, 3B, 6A)
[1] = target: T1, FLAG-tagged dSMN(Y203C) (Drosophila melanogaster)
[2] = target: T2, FLAG-tagged dSMN(G206S) (Drosophila melanogaster)
[3] = target: T3, FLAG-tagged dSMN(G210V) (Drosophila melanogaster)
[4] = target: T4, FLAG-tagged wild-type Drosophila SMN (Flag-dSMN WT) (Drosophila melanogaster)
[5] = target: T5, FLAG-tagged dSMN(D20V) (Drosophila melanogaster)

binding [1]	binding [2]	binding [3]	binding [4]	binding [5]	Binder
binds	binds	binds			Myc-tagged wild-type Drosophila SMN (Myc-WT dSMN) (protein, UniProt Q9VV74 1-226) MSDETNAAVWDDSLLVKTYDESVGLAREALARRLADSTNKREEENAAAAEEEAGEISATGGATSPEPVSFKVGDYARATYVDGVDYEGAVVSINEEKGTCVLRYLGYENEQEVLLVDLLPSWGKRVRREQFLIAKKDEDEQLSRPKASAGSHSKTPKSSRRSRISGGLVMPPMPPVPPMIVGQGDGAEQDFVAMLTAWYMSGYYTGLYQGKKEASTTSGKKKTPKK
			binds	binds weakly	Myc-tagged Drosophila Gemin2 (Myc-dGem2) (protein, UniProt Q9VVX0 1-245) MQHEPEDQTFQLQALEICEPDSSFDPQKPPESGEEYLMHMFYERKRCPAVVTKRSSKIRNNTGNTTLEMLDNPELPPFKCLLPTPEWRDEQVKSFQAARSQVLVLRKELANNNYDQSGEPPLTSDQEKWKEFCRNQQPLLSTLLHLTQNDLELLLEMLSKWLQDPNTTVDLLHDVWLARWLYATLVCLHLPLEPHVFSTLRYIARTCIHLRNQLKEDEVQRAAPYNLLLTLTVQVFAQNDFKDYI
